The assay deals with BDF1 mice, P388 leukemia ip, median survival T/C. Briefly: NCI In Vivo Anticancer Drug Screen. Data for tumor model P388 Leukemia (intraperitoneal) in B6D2F1 (BDF1) mice. The following applies: T/C endpoint: median survival time, higher T/C = longer survival. Put shortly:
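Read-out is survival of treated animals expressed relative to the vehicle group, as a T/C ratio.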

Where [1] appears, read: dose: 100.0 mg/kg/injection, schedule: Q04DX003 (ip), vehicle: saline.
Where [2] appears, read: dose: 400.0 mg/kg/injection, schedule: Q01DX009 (ip), vehicle: saline with Tween-80.
Where [3] appears, read: dose: 200.0 mg/kg/injection, schedule: Q01DX009 (ip), vehicle: water.
Setting [4] is: dose: 200.0 mg/kg/injection, schedule: Q01DX009 (ip), vehicle: Klucel (hydroxypropylcellulose) (HPC).
Where [5] appears, read: dose: 200.0 mg/kg/injection, schedule: Q01DX009 (ip), vehicle: saline with Tween-80.

Results on 22 compounds are retold here after PubChem BioAssay AID328 (DTP/NCI, 2004).

The list does not hold the whole screen: it gathers tests that were run many times, whatever their T/C, doses with no T/C, and many T/C values between a quarter and a half above the control. Further doses and runs are listed elsewhere. T/C: endpoint of the treated group in % of that of the vehicle group. Some entries give survivors of the animals treated and no T/C: the source files T/C as zero there, which appears to mark a toxic dose or a test without result, not a measured value. Some survivor counts are full or nearly so, which does not show that the dose was tolerated: the source hardly ever lists a survival T/C far under the control, and the zero likely stands for such cases as well. Survivors were counted at the toxicity check, usually on the fifth day, unless a day is given; later deaths do not show. Schedule codes are those of the source, read here as Q, the interval in days (D) or hours (H), X, the number of doses. Where survival is the endpoint, the PubChem record calls one and a half times the control and up active, and a quarter to a half above the control has no call in these data; cut-offs in other NCI protocols can differ. Some T/C values carry the count of animals alive at the toxicity check (mostly the fifth day); where none is given, no animal had died by that day.

As for `O=S1ON=C(C2CCC(C3=NOS(=O)O3)C2)O1` (stereo not drawn), under “dose: 200.0 mg/kg/injection, schedule: Q01DX005 (ip), vehicle: saline with Tween-80”, the survivor count is recorded as 4 of 5.

With `CCN1/C(=C/C=C/C=C\C=C\c2sc3ccc4ccccc4c3[n+]2CC)Sc2ccc3ccccc3c21`, the survivor count by setting is: (dose: 6.25 mg/kg/injection, schedule: Q04DX002 (ip), vehicle: saline with Tween-80) 6 of 6; (dose: 12.5 mg/kg/injection, schedule: Q04DX002 (ip), vehicle: saline with Tween-80) 6 of 6; (dose: 25.0 mg/kg/injection, schedule: Q04DX002 (ip), vehicle: saline with Tween-80) 5 of 6; (dose: 50.0 mg/kg/injection, schedule: Q04DX002 (ip), vehicle: saline with Tween-80) 4 of 6.

On to `CC(=O)OC1CCC2(C)C3CCC4(C)C(=CCC5(C(=O)O)CCC(C)(C)CC45)C3(C)CCC2C1(C)C` (stereo not drawn), for which the T/C (dose: 1.4 mg/kg/injection, schedule: Q01DX009 (ip), vehicle: alcohol) is 128 % of control.

On to `CC1(C)N=C(N)N=C(N)N1c1ccc(CCCCc2ccc(Cl)c(S(=O)(=O)F)c2)c(Cl)c1`, for which the T/C by setting is: (dose: 2.0 mg/kg/injection, schedule: Q01DX009 (ip), vehicle: saline) 131 % of control; (dose: 3.0 mg/kg/injection, schedule: Q01DX009 (ip), vehicle: saline) 127 % of control; (dose: 5.56 mg/kg/injection, schedule: Q04DX003 (ip), vehicle: saline) 128 % of control; (dose: 8.0 mg/kg/injection, schedule: Q01DX009 (ip), vehicle: saline) 145 % of control; (dose: 12.5 mg/kg/injection, schedule: Q01DX009 (ip), vehicle: saline) 137 % of control; (dose: 12.5 mg/kg/injection, schedule: Q04DX003 (ip), vehicle: saline) 139 % of control. The T/C reads like this: (dose: 18.7 mg/kg/injection, schedule: Q04DX003 (ip), vehicle: saline) 148 % of control; (dose: 25.0 mg/kg/injection, schedule: Q04DX003 (ip), vehicle: saline) 127 % of control; under setting [1], 127 % of control.

In the case of `ClC(Cl)(Cl)C(Cl)(Cl)c1ccc(C(Cl)(Cl)C(Cl)(Cl)Cl)cc1`, the survivor count (dose: 100.0 mg/kg/injection, schedule: Q01DX009 (ip), vehicle: saline with Tween-80) is listed as 5 of 6 and the survivor count under setting [2] was 6 of 6. Further, the T/C (dose: 200.0 mg/kg/injection, schedule: Q04DX003 (ip), vehicle: saline sonified) was 129 % of control.

For `CC1CCC2(C)CCC3(C)C(=CCC4C5(C)CCC(O)C(C)(C)C5CCC43C)C2C1C` (stereo not drawn), under setting [3], the survivor count is on record as 10 of 10.

For `C=CCNc1ccc(C)cc1`, the T/C is 127 % of control (dose: 50.0 mg/kg/injection, schedule: Q01DX009 (ip), vehicle: saline with Tween-80); 136 % of control (dose: 100.0 mg/kg/injection, schedule: Q01DX009 (ip), vehicle: Klucel (hydroxypropylcellulose) (HPC)); 136 % of control under setting [4]. Further, the survivor count under setting [5] is listed as 0 of 6.

Consider `N#CCc1ccc([N+](=O)[O-])cc1`, for which the survivor count is, setting by setting: (dose: 25.0 mg/kg/injection, schedule: Q01DX009 (ip), vehicle: Klucel (hydroxypropylcellulose) (HPC)) 6 of 6; (dose: 50.0 mg/kg/injection, schedule: Q04DX003 (ip), vehicle: Klucel (hydroxypropylcellulose) (HPC)) 3 of 6.

Turning to `CC/C(=C(\c1ccccc1)c1ccc(OCCN(C)C)cc1)c1ccccc1`, the survivor count reads like this: under setting [4], 2 of 3; (dose: 400.0 mg/kg/injection, schedule: Q01DX009 (ip), vehicle: Klucel (hydroxypropylcellulose) (HPC)) 1 of 3.

Consider `FC(F)(F)C1=NC(=S)C(c2[nH]c(C(F)(F)F)nc2S)=N1`, for which the T/C under setting [3] is 126 % of control.

For the compound `O=CN(O)CC(=O)O.[Cu]`, the survivor count was 5 of 6 (dose: 20.0 mg/kg/injection, schedule: Q04DX003 (ip), vehicle: saline); 0 of 6 (dose: 30.0 mg/kg/injection, schedule: Q04DX003 (ip), vehicle: saline); 0 of 6 (dose: 40.0 mg/kg/injection, schedule: Q01DX001 (ip), vehicle: saline).

For `Oc1c(I)cc(Cl)c2cccnc12`, the survivor count is, setting by setting: (dose: 50.0 mg/kg/injection, schedule: Q01DX003 (ip), vehicle: saline with Tween-80) 3 of 6; (dose: 100.0 mg/kg/injection, schedule: Q01DX003 (ip), vehicle: saline with Tween-80) 3 of 6; (dose: 200.0 mg/kg/injection, schedule: Q01DX003 (ip), vehicle: saline with Tween-80) 3 of 6.

For `CS(=O)(=O)OCC(=O)NCCNC(=O)COS(C)(=O)=O`, for the setting “dose: 100.0 mg/kg/injection, schedule: Q04DX003 (ip), vehicle: saline with Tween-80”, the T/C was 142 % of control [5 of 6 alive]. The survivor count (dose: 600.0 mg/kg/injection, schedule: Q04DX003 (ip), vehicle: saline with Tween-80) is given as 4 of 6.

For `CCc1ccc(C(=O)NN)cc1`, under “dose: 400.0 mg/kg/injection, schedule: Q04DX003 (ip), vehicle: saline”, the survivor count is on record as 1 of 6.

For the compound `O=C(CC(O)(C(F)(F)F)C(F)(F)F)c1cccs1`, the T/C (dose: 200.0 mg/kg/injection, schedule: Q04DX003 (ip), vehicle: saline with Tween-80) was 125 % of control [5 of 6 alive]. Also, where the note is “dose: 300.0 mg/kg/injection, schedule: Q04DX003 (ip), vehicle: saline with Tween-80”, the survivor count is 0 of 6.

Take `CCCCCOC(CN)C(Cl)(Cl)Cl` (stereo not drawn): the T/C is 130 % of control [5 of 6 alive] (dose: 50.0 mg/kg/injection, schedule: Q01DX009 (ip), vehicle: saline) and 127 % of control (dose: 75.0 mg/kg/injection, schedule: Q01DX009 (ip), vehicle: saline). Besides, where the note is “dose: 100.0 mg/kg/injection, schedule: Q01DX009 (ip), vehicle: saline”, the survivor count is listed as 6 of 6.

`CCCC(=O)Oc1ccc(/C=N/NC(N)=S)nc1`: the survivor count is 6 of 6 (dose: 225.0 mg/kg/injection, schedule: Q01DX009 (ip), vehicle: saline with Tween-80); 6 of 6 under setting [2]; 6 of 6 (dose: 600.0 mg/kg/injection, schedule: Q01DX009 (ip), vehicle: saline with Tween-80).

Turning to `CN[C@H]1CC[C@]23C[C@]24CC[C@]2(C)[C@@H]([C@H](C)N(C)C)CC[C@@]2(C)[C@@H]4CC[C@H]3C1(C)C`, the T/C (dose: 40.0 mg/kg/injection, schedule: Q01DX010 (ip), vehicle: carboxymethylcellulose (CMC)) was 145 % of control. Besides, the survivor count runs as follows: (dose: 60.0 mg/kg/injection, schedule: Q01DX010 (ip), vehicle: carboxymethylcellulose (CMC)) 4 of 6; (dose: 80.0 mg/kg/injection, schedule: Q01DX010 (ip), vehicle: carboxymethylcellulose (CMC)) 5 of 6.

Turning to `Cc1nc2ccccc2c(=O)n1C(C)(C)CCl`, the T/C (dose: 400.0 mg/kg/injection, schedule: Q04DX003 (ip), vehicle: saline with Tween-80) was 127 % of control.

On to `CCOC(=O)C(C)[P+](c1ccccc1)(c1ccccc1)c1ccccc1` (stereo not drawn), for which, under “dose: 1.5 mg/kg/injection, schedule: Q01DX009 (ip), vehicle: saline”, the T/C is 127 % of control. In addition, under “dose: 6.0 mg/kg/injection, schedule: Q01DX009 (ip), vehicle: saline”, the survivor count is given as 0 of 6.

For `Cc1ccc(S(=O)(=O)N(CCC(=N)N)C(C)C)cc1`, the survivor count under setting [1] was 1 of 6.

Turning to `CS(=O)/C=C(\c1ccccc1)c1cccs1` (stereo not drawn), the survivor count under setting [5] was 3 of 6.
